Results from paper PMC5109244.
No constants are given. Whether binding was seen depends on the method and setting.

By UniProt entry, the sequences of proteins in these tests, tags left out. Residues count along the entry.
UniProt Q6UXN8, residues 57-241: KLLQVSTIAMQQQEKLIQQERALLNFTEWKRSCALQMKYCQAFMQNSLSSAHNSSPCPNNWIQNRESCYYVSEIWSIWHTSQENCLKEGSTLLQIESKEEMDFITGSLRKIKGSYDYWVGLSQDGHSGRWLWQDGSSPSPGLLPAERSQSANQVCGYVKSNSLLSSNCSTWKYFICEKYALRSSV

Tests used:
[1] = target: human DNGR-1 ECD (extracellular domain of human DNGR-1) (human) (UniProt Q6UXN8); assay: condition: only with DTT or β-ME (reducing SDS-PAGE, neutral conditions); reducing SDS-PAGE and Western blot; supernatants with FLAG-tagged ECD proteins, neat or diluted into PBS (neutral conditions); reduced with DTT (100 mM) or β-ME in Laemmli buffer; anti-FLAG detection
[2] = target: human DNGR-1 ECD (extracellular domain of human DNGR-1) (human) (UniProt Q6UXN8); assay: condition: only with DTT (reducing SDS-PAGE), in PBS; reducing SDS-PAGE and Western blot; purified ECD diluted into PBS (neutral conditions); DTT in Laemmli buffer, boiled; anti-FLAG detection; both purified

In the case of “human DNGR-1 ECD (extracellular domain of human DNGR-1) (from UniProt Q6UXN8 57-241) (domain or fragment)”, the binding [1] is reported as “no binding” and the binding [2] is reported as “no binding”.
